Results are given in words; binding and its absence hold for the method and conditions named. Binding seen in cells or lysates may run through a third protein. A yes stands for co-enrichment or nearness to the bait. Other partners may have been found.
Columns and labels:
[1] = target: RlpA-Δ32 (rare lipoprotein A), N-terminally His-tagged (P. aeruginosa PAO1) (UniProt Q9X6V6); assay: affinity purification with mass spectrometry; only the target purified
[2] = target: MltG, N-terminal His-tagged construct (P. aeruginosa) (UniProt Q9HZN7); assay: affinity purification with mass spectrometry; N-terminally His-tagged LT on Ni-NTA resin incubated with the soluble or the 0.5% NP-40-solubilised membrane proteome of P. aeruginosa PAO1, 4 °C overnight; eluted with 500 mM imidazole; no cross-linker; only the target purified
[3] = target: Slt, N-terminal His-tagged construct (P. aeruginosa) (UniProt Q9HZI6); assay: as above
[4] = target: MltB, N-terminal His-tagged construct (P. aeruginosa) (UniProt Q9HVX3); assay: as above
[5] = target: MltD, N-terminal His-tagged construct (P. aeruginosa) (UniProt Q9I2T2); assay: as above
[6] = target: MltA, N-terminal His-tagged construct (P. aeruginosa) (UniProt Q9I4B6); assay: as above
[7] = target: MltF2, N-terminal His-tagged construct (P. aeruginosa) (UniProt Q9HZY1); assay: as above
[8] = target: RlpA-Δ32 (rare lipoprotein A), N-terminally His-tagged (P. aeruginosa PAO1) (UniProt Q9X6V6); assay: as above
[9] = target: MltF2, N-terminal His-tagged construct (P. aeruginosa) (UniProt Q9HZY1); assay: affinity purification with mass spectrometry; only the target purified
[10] = target: MltF, N-terminal His-tagged construct (P. aeruginosa) (UniProt Q9HXN1); assay: affinity purification with mass spectrometry; N-terminally His-tagged LT on Ni-NTA resin incubated with the soluble or the 0.5% NP-40-solubilised membrane proteome of P. aeruginosa PAO1, 4 °C overnight; eluted with 500 mM imidazole; no cross-linker; only the target purified
[11] = target: RlpA-Δ32 (rare lipoprotein A), N-terminally His-tagged (P. aeruginosa PAO1) (UniProt Q9X6V6); assay: affinity purification with mass spectrometry; His-tagged RlpA-Δ32 incubated with PAO1 proteome overnight at 4 °C, cross-linked with BS^3, then captured on Ni-NTA resin; only the target purified

Chains of the proteins cited; added tags and fusions are not shown. Residues count along the entry.
UniProt Q9HXN1, residues 33-490: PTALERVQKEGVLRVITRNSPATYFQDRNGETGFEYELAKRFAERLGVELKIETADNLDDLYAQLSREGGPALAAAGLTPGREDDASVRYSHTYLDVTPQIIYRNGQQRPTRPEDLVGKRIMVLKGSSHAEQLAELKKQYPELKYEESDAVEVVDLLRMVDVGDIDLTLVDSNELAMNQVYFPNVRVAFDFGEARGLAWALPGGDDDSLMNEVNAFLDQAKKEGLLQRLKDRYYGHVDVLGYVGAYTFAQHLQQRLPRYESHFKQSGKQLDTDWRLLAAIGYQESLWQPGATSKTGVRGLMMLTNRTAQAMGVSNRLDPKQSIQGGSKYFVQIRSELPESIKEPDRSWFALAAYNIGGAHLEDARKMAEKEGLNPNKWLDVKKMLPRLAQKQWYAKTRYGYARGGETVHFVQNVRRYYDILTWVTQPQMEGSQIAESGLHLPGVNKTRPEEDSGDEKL
UniProt Q9I788: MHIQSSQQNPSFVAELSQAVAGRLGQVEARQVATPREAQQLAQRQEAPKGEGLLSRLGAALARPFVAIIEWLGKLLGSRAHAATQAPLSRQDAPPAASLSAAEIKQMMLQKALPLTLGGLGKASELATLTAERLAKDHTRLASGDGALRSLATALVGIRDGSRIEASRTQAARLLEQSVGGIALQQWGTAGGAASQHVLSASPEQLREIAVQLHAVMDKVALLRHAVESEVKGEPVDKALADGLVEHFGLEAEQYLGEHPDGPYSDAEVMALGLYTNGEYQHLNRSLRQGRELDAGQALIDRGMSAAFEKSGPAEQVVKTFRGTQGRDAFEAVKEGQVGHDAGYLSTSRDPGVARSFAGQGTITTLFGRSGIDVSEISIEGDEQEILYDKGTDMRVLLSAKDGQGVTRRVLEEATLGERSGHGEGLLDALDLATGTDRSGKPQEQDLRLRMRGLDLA
UniProt Q07806: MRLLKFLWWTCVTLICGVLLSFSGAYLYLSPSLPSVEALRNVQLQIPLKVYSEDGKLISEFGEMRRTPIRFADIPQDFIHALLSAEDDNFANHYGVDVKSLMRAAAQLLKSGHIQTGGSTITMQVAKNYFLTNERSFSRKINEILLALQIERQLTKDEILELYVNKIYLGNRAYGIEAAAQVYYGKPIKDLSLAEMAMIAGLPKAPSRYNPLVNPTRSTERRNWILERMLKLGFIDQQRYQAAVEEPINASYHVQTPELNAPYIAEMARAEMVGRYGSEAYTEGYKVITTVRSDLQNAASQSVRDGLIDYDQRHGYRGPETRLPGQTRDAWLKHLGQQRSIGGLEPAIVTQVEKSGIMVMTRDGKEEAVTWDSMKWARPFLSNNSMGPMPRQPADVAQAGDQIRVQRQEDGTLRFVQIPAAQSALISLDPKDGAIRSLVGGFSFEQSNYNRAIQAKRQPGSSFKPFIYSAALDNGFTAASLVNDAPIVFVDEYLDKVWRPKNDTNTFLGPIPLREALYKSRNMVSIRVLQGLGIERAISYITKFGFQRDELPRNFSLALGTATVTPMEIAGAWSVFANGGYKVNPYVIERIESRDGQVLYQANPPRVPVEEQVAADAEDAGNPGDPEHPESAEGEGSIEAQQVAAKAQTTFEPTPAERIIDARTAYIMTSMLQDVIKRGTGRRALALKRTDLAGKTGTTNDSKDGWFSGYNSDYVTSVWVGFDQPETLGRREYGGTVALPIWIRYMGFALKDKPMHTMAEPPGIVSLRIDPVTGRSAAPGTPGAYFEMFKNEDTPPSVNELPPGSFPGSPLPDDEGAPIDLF

Q: ExoT (from UniProt Q9I788 1-457) was tested. Which binding [1] did it give?
A: binds

Q: Which binding [1] does the source give for MigA (from UniProt Q9I5M1) here?
A: binds

Q: Which binding [2] does the source give for MltF (from UniProt Q9HXN1 33-490) here?
A: binds

Q: And the binding [3]?
A: binds

Q: And the binding [4]?
A: binds

Q: What about the binding [5] of the same substance?
A: binds

Q: What about the binding [6] of the same substance?
A: binds

Q: And the binding [7]?
A: binds

Q: What about the binding [8] of the same substance?
A: binds

Q: With PA2854 (from UniProt Q9HZZ0) as the substance, how does the binding [9] read?
A: binds

Q: And the binding [1]?
A: binds

Q: PA3020 (from UniProt Q9HZI6) was tested. Which binding [2] did it give?
A: binds

Q: What about the binding [3] of the same substance?
A: binds

Q: What about the binding [7] of the same substance?
A: binds

Q: For PA3999 (from UniProt G3XD74), which binding [10] is on record?
A: binds

Q: And the binding [2]?
A: binds

Q: And the binding [3]?
A: binds

Q: With PA4063 (from UniProt Q9HWW5) as the substance, how does the binding [1] read?
A: binds

Q: With PBP1a (from UniProt Q07806 1-822) as the substance, how does the binding [8] read?
A: binds

Q: Which binding [1] does the source give for PvdL (from UniProt Q9I157) here?
A: binds

Q: With TypA (from UniProt Q9HU67) as the substance, how does the binding [11] read?
A: binds

Q: What about the binding [10] of the same substance?
A: binds

Q: And the binding [2]?
A: binds

Q: And the binding [3]?
A: binds

Q: And the binding [4]?
A: binds

Q: What about the binding [5] of the same substance?
A: binds

Q: What about the binding [6] of the same substance?
A: binds

Q: What about the binding [7] of the same substance?
A: binds

Q: What about the binding [8] of the same substance?
A: binds

Q: With Wzz (from UniProt G3XCY2) as the substance, how does the binding [1] read?
A: binds
